Experimental data from publication PMC9060481.
These are yes or no findings as the source states them, for the method shown. For some assays here: Binding calls can cover weak binding; strength is not graded here. For some assays here: Tags and fused reporters may be left off the sequences shown.

What was measured:
[1] = biological target: T1, DOESN'T MAKE INFECTIONS1 (DMI1), yeast two-hybrid fusion (M. truncatula) (UniProt Q6RHR6); assay: two-hybrid; pairwise yeast two hybrids
T1 sequence: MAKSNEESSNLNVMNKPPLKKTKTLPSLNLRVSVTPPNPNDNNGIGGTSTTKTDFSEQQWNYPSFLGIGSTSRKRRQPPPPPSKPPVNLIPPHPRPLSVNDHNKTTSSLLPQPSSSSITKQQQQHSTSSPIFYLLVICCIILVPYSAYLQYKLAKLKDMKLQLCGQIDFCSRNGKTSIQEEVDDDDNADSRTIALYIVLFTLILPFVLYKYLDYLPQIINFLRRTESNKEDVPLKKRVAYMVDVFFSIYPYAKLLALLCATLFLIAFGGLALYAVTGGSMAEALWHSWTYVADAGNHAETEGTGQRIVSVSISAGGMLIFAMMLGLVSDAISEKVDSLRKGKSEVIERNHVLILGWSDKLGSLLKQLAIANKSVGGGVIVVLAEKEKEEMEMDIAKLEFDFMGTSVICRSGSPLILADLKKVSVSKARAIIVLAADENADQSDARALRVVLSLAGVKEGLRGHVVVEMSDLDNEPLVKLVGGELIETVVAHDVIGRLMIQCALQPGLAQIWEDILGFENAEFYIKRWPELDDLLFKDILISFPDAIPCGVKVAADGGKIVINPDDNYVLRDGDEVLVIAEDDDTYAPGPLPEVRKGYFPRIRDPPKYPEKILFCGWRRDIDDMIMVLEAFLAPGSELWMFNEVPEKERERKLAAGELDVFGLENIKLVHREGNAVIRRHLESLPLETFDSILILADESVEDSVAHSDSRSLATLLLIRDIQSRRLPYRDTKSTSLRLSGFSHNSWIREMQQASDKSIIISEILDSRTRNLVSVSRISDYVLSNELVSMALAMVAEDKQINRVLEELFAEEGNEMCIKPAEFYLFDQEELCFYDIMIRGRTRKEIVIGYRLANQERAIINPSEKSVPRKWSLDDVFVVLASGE

[2] = biological target: T2, CNGC15b-IQ peptide (M. truncatula); assay: ITC; CaM2 or CaM2^R91A with 10 µM IQ peptide in the presence of 5 mM CaCl2; both purified
T2 sequence (peptide): AACFIQVAWRRTIQEKKG

[3] = biological target: T3, CNGC15c-IQ peptide (M. truncatula); assay: as above
T3 sequence (peptide): AACFIQAAWRRHKKRKEA

Row | Substance | binding [1] | binding [2] | binding [3]
1 | CaM2^R91A, purified recombinant protein (M. truncatula) |  | binds | binds
2 | CaM2^R91A, yeast two-hybrid fusion (M. truncatula) | no binding |  | 
3 | calmodulin 2 (CaM2), purified recombinant protein (M. truncatula) |  | binds | binds

The remaining lines, values ahead:

Row | binding [1] | binding [2] | binding [3] | Substance
4 | no binding |  |  | CALMODULIN 1 (CaM1), yeast two-hybrid fusion (M. truncatula)
5 | no binding |  |  | CALMODULIN 2 (CaM2), yeast two-hybrid fusion (M. truncatula)
6 | no binding |  |  | CALMODULIN 3 (CaM3), yeast two-hybrid fusion (M. truncatula)
